The list shows a part of the results.
Compound: Cc1cc(ccc1-c1ccccc1)C(=O)N1CCCN(CC1)C(=O)CCl [compound 10]
Test: probe-labelled cysteine peptide fold change vs DMSO (competition) (log2 fold change); higher = less target engagement (more negative = stronger competition)
Conditions: THP-1, incubation time: 4 h
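Also: competitive profiling in live THP-1 cells: cysteine peptides tagged with an iodoacetamide desthiobiotin (IA-DTB) probe, intensity after compound treatment relative to DMSO-treated cells.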

Target | probe-labelled cysteine peptide fold change (10 µM) | probe-labelled cysteine peptide fold change (50 µM)
IRF2BP1_Q8IU81_546_AQGPAGEVYCPSGDK (UniProt Q8IU81) | -0.0635 | -0.049
INTS14_Q96SY0_464_ECTLLPETAHPDAAFQLTHAAQQLK (UniProt Q96SY0) | -0.0173 | 0.296
IQGAP1_P46940_494_QLSSSVTGLTNIEEENCQR (UniProt P46940) | 0.102 | 0.131
ITGAM_P11215_144_GCPQEDSDIAFLIDGSGSIIPHDFRR (UniProt P11215) | -0.132 | 0.0868
IRF2BP2_Q7Z5L9_16_QSCYLCDLPR (UniProt Q7Z5L9) | 0.118 | -0.249
INTS6_Q9UL03_211_SYSVCSPR (UniProt Q9UL03) | -0.0696 | -0.133
IQGAP1_P46940_660_SPDVGLYGVIPECGETYHSDLAEAKK (UniProt P46940) | -0.213 | -0.0822
IPO4_Q8TEX9_962_DNICGALAR (UniProt Q8TEX9) | 0.0138 | -0.315
IRAK3_Q9Y616_5_AGNCGAR (UniProt Q9Y616) | 0.158 | 0.152
INSR_P06213_1165_NCMVAHDFTVK (UniProt P06213) | 0.0665 | -0.105
INTS9_Q9NV88_5+14_LYCLSGHPTLPCNVLK (UniProt Q9NV88) | 0.035 | -0.0263
IRF2BP2_Q7Z5L9_65_AHGCFPEGR (UniProt Q7Z5L9) | -0.0806 | -0.143
ITGA4_P13612_183_IAPCYQDYVK (UniProt P13612) | 0.0498 | 0.312
INTS3_Q68E01_843_EHPEALSCLLLQLR (UniProt Q68E01) | -0.0584 | -4.29e-05
IP6K1_Q92551_48_YDDHTVCK (UniProt Q92551) | 0.0811 | 0.0315
IPO4_Q8TEX9_726_KAAHEALGQFCCALHK (UniProt Q8TEX9) | -0.0458 | -0.126
IRF2BP2_Q7Z5L9_40_GCVNYEGADRVEFVIETAR (UniProt Q7Z5L9) | 0.123 | -0.0852
IRS2_Q9Y4H2_248_CGHSDSFFFIEVGR (UniProt Q9Y4H2) | -0.0145 | -0.134
ITGB2_P05107_481+483_NCECQTQGR (UniProt P05107) | -0.124 | -0.52
ITPK1_Q13572_391_LGCNAGVSPSFQQHCVASLATK (UniProt Q13572) | 0.0517 | -0.193
ITPK1_Q13572_156_NGLTFPFICK (UniProt Q13572) | 0.14 | -0.143
ITGB2_P05107_386_VTYDSFCSNGVTHR (UniProt P05107) | -0.107 | -0.159
IQSEC1_Q6DN90_359_ADTDTSCR (UniProt Q6DN90) | -0.182 | -0.375

Rewritten in markdown: entries from further up

| Target | probe-labelled cysteine peptide fold change (10 µM) | probe-labelled cysteine peptide fold change (50 µM) |
| --- | --- | --- |
| IRF2BP2_Q7Z5L9_40_GCVNYEGADRVEFVIETAR (UniProt Q7Z5L9) | 0.123 | -0.0852 |
| IRS2_Q9Y4H2_248_CGHSDSFFFIEVGR (UniProt Q9Y4H2) | -0.0145 | -0.134 |

Source: the supplement of paper PMC12067093, “Discovery and optimisation of a covalent ligand for TRIM25 and its application to targeted protein ubiquitination” (Chemical Science, 2025)
